Test results as given in PubChem BioAssay AID504444 (National Center for Advancing Translational Sciences (NCATS), 2011).
Out of some 360,000 compounds screened, about 7,500 (2.1%) were called active. Inconclusive results, whose numbers are uncertain, are shown with a selection of clear calls. Calls come from the whole dose curve; as a rule, active = well fitted inhibition curve with a large enough effect; inconclusive = small, poorly fitted or top-dose-only effect, or effect the other way; inactive = flat fitted curve, though single readings scatter. Potencies of inconclusive entries are doubtful fits and often do not repeat.

experiment: Nrf2 qHTS screen for inhibitors; conditions: A549 ARE-Fluc reporter, luciferase luminescence, 18-24 h; series mostly up to 46 µM; note: nearly all actives have a fitted effect of over 60% in size
Method in brief: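 A549 ARE_Fluc cells (5000/well, 5% FBS OPTI-MEM) pre-incubated 2 h, then treated with compounds 18-24 h at 37C/5% CO2 in concentration-response. CellTiter-Fluor viability read first; BugLite luciferase luminescence after 15 min at room temperature gives Nrf2 activity.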
Potency is the fitted concentration of half-maximal effect.

Row | Structure (SMILES) | Potency
1 | CC1CCc2onc(C(=O)N3CCN(c4cccc(C(F)(F)F)c4)CC3)c2C1 (centres undefined) | active: 20.6 µM
2 | COc1ccc(-c2nc3ccccc3s2)cc1NC(=O)c1cc2ccccc2o1 | inconclusive: 18.4 µM [activator, partial curve, poor fit]
3 | c1ccc(-c2csc(NC3CCCCC3)n2)cc1 | inconclusive: 16.4 µM [activator, partial curve]
4 | CCOc1cc(CNCC2CCCO2)cc(Br)c1OCC(N)=O (centres undefined) | inconclusive: 0.231 µM [falling, partial curve, poor fit]
5 | COc1ccc(S(=O)(=O)N2CCN(C(=O)CCSc3ccccc3)CC2)cc1 | inconclusive: 23.1 µM [falling, partial curve, poor fit]
6 | Cc1cc(NC(=O)c2ccc3nc(C)sc3c2)no1 | inconclusive: 2.31 µM [activator, partial curve, poor fit]
7 | O=C(O)c1ccc(COc2ccc3c(c2)CCC3)cc1 | inconclusive: 1.46 µM [activator, full curve]
8 | COc1cc(/C=C2/SC(=Nc3ccc(O)cc3)NC2=O)ccc1O | inconclusive: 32.6 µM [activator, single point]
9 | CCOc1ccccc1NC(=O)Cn1cnc2c(nnn2-c2cccc(OC)c2)c1=O | inconclusive: 5.17 µM [falling, single point]
10 | Cc1c(CCC(=O)O)c(=O)oc2cc3occ(C(C)(C)C)c3cc12 | active: 18.4 µM
11 | CN(C)c1ccc(N=Nc2ccccc2Br)cc1 | inconclusive: 0.517 µM [activator, full curve, poor fit]
12 | CCOCCSC1=C(C#N)C(c2cccs2)C(C(C)=O)=C(C)N1 (centres undefined) | inconclusive: 32.6 µM [falling, partial curve, poor fit]
13 | CCCN1CNc2c(c(=O)[nH]c(=S)n2CCc2cccc(Cl)c2Cl)C1 | inactive
14 | CCc1ccc(N(C(=O)c2snc(C(N)=O)c2N)C(C(=O)NCC2CCCO2)c2cccs2)cc1 (centres undefined) | inconclusive: 20.6 µM [activator, partial curve, poor fit]
15 | COc1ccc(NC(=O)N2CCc3ccccc32)cc1 | inconclusive: 0.411 µM [activator, full curve]
16 | CCc1cccc(-n2nnc(-c3nc(-c4cccs4)no3)c2N)c1 | inconclusive: 5.17 µM [activator, full curve, poor fit]
17 | COc1ccc(Nc2ncnc3sc(C)cc23)c(OC)c1 | inconclusive: 8.2 µM [activator, partial curve]
18 | COc1cc(/C=C2\CCC(C)C3=C(c4cc(OC)c(OC)c(OC)c4)C(C#N)=C(N)OC32)cc(OC)c1OC (centres undefined) | inconclusive: 16.4 µM [falling, partial curve]
19 | CN[C@H]1CCc2cc(OC)c(OC)c(OC)c2-c2ccc(OC)c(=O)cc21 | inconclusive: 0.103 µM [activator, full curve, poor fit]
20 | COc1ccc(CN(C)C(=O)c2cccc(S(=O)(=O)N3CCc4ccccc43)c2)c(OC)c1 | inconclusive: 16.4 µM [falling, single point]
21 | Clc1ccc2nc(-c3ccc(Br)o3)c(Nc3ccc4c(c3)OCCO4)n2c1 | inactive
22 | COc1ccc(NC(=O)c2noc3c2CSc2ccccc2-3)cc1Cl | inconclusive: 29.1 µM [activator, single point]

Row | Structure (SMILES) | Potency
23 | Cc1ccc(CCNc2ccccc2)c[n+]1[O-] | inactive
24 | Cc1ncc(CO)c(/C=N/NC(=O)c2cc(Br)ccc2O)c1O | inconclusive: 29.1 µM [falling, single point]
25 | O=C(O)CCn1c(=O)[nH]c2ccccc2c1=O | inconclusive: 3.66 µM [falling, partial curve, poor fit]
26 | CCCCn1nc(NC(=O)c2cccs2)c2cc3ccccc3nc21 | active: 11.6 µM
27 | COc1cc(N2C(=O)C=CC2=O)ccc1N1C(=O)C=CC1=O | inconclusive: 23.1 µM [falling, single point]
28 | COc1cc(OC)c(OC)cc1/C=N/Nc1nc2ccccc2[nH]1 | inactive
29 | N/C(=N\OC(=O)c1cccc(Br)c1)c1ccccn1 | inconclusive: 1.16 µM [activator, full curve]
30 | O=C(Cn1nc(Cc2cccnc2)c2ccccc2c1=O)Nc1cccc(C(F)(F)F)c1 | inconclusive: 9.2 µM [falling, partial curve, poor fit]
31 | Cc1ccc(OCc2ccc(C(=O)N3CCCC3)o2)c([N+](=O)[O-])c1 | inconclusive: 1.46 µM [activator, full curve, poor fit]
32 | CCc1nc2ccc(C(=O)NCc3ccccc3)cc2nc1CC | inconclusive: 20.6 µM [falling, single point]
33 | COc1ccc(C(=O)NC2CCCc3ccccc32)cc1Br (centres undefined) | inconclusive: 18.4 µM [falling, partial curve]
34 | COCc1cc(N2CCCCC2)nc(-c2ccccc2)n1 | inconclusive: 16.4 µM [falling, single point]
35 | COc1ccccc1C(=O)NC(=O)Nc1c(C)cc(C)cc1C | inconclusive: 8.2 µM [falling, partial curve]
36 | CC(C)Cn1c(N)c(C(=O)COC(=O)C2CCCCC2)c(=O)n(C)c1=O | inconclusive: 20.6 µM [falling, single point]
37 | CCOc1ccc(-c2nonc2NC(=O)c2ccc(C)cc2)cc1OCC | inactive
38 | CCOC(=O)C1(Cc2ccccc2)CCN(Cc2cccn2-c2nccs2)CC1 | inconclusive: 18.4 µM [falling, single point]
39 | CC12CCC(O)CC1=CCC1C2CCC2(C)C(c3ccn[nH]3)CCC12 (centres undefined) | active: 20.6 µM
40 | CC(C)CNS(=O)(=O)c1ccc(C(=O)Nc2ccc3c(c2)OCCO3)cc1 | inconclusive: 6.51 µM [activator, single point]
41 | Cc1ccc(NCCCn2cnc(C(=O)Nc3ccc(C)c(C)c3)n2)cc1C | inactive
42 | O=C(Cc1csc2ccccc12)NCc1ccccc1F | inconclusive: 20.6 µM [activator, partial curve]
43 | CC(C)c1ccccc1OCC(O)CN1CCN(S(=O)(=O)c2ccc([N+](=O)[O-])cc2)CC1 (centres undefined) | inconclusive: 23.1 µM [falling, single point]
44 | COC(=O)c1ccc(/C=N\N2CCN(c3ccccc3)CC2)cc1 | inconclusive: 8.2 µM [activator, partial curve]

Shown in markdown: entries from further up.

| Row | Structure (SMILES) | Potency |
| --- | --- | --- |
| 5 | COc1ccc(S(=O)(=O)N2CCN(C(=O)CCSc3ccccc3)CC2)cc1 | inconclusive: 23.1 µM [falling, partial curve, poor fit] |
| 6 | Cc1cc(NC(=O)c2ccc3nc(C)sc3c2)no1 | inconclusive: 2.31 µM [activator, partial curve, poor fit] |
| 7 | O=C(O)c1ccc(COc2ccc3c(c2)CCC3)cc1 | inconclusive: 1.46 µM [activator, full curve] |

Next records follow:

Row | Structure (SMILES) | Potency
45 | CCc1sc(C(=O)Nc2ccc(NC(C)=O)cc2)cc1C | inconclusive: 4.11 µM [falling, partial curve, poor fit]
46 | CCOc1ccc(-c2nc(SCC(=O)Nc3ccc4c(c3)OCCO4)c(-c3ccc(F)cc3)[nH]2)cc1 | inactive
47 | O=C(C(=Cc1ccccc1)CN1CCCCC1)c1ccccc1 | inconclusive: 29.1 µM [falling, single point]
48 | CC(C)(C)c1ccc(S(=O)(=O)Nc2noc3ccccc23)cc1 | inconclusive: 29.1 µM [falling, single point]
49 | Cc1cc(C(=O)NNC(=S)NC(=O)/C=C/c2ccccc2Cl)n[nH]1 | inconclusive: 8.2 µM [falling, partial curve]
50 | O=C(NCc1nc(-c2ccc(C(F)(F)F)cc2)no1)Nc1cc(Cl)cc(Cl)c1 | inconclusive: 29.1 µM [falling, single point]
51 | CCc1ccc(NC(=O)CN2C(=O)C(c3ccccc3)=NC23CCCCCC3)cc1 | inconclusive: 23.1 µM [falling, single point]
52 | COc1ccc(-c2noc(CNC(=O)c3ccoc3C)n2)cc1 | inconclusive: 29.1 µM [falling, single point]
53 | COc1ccccc1NS(=O)(=O)c1ccc(C)c(C(=O)NNC(=O)c2csc(N3CCOCC3)n2)c1 | inconclusive: 7.31 µM [falling, partial curve]
54 | O=C(c1ccc2ncsc2c1)N1CCN(c2ccc(O)cc2)CC1 | inconclusive: 29.1 µM [falling, single point]
55 | CCOc1ccccc1N1CCN(C(=O)CN2C(=O)NC3(CCCC3)C2=O)CC1 | inconclusive: 16.4 µM [falling, partial curve, poor fit]
56 | CCOC(=O)c1cc(NC(=O)c2cccnc2)cc(C(=O)OCC)c1 | inconclusive: 29.1 µM [falling, single point]
57 | CCOC(=O)c1nnn2c1nc(Nc1cccc(C(F)(F)F)c1)c1ccccc12 | inconclusive: 1.84 µM [falling, partial curve]
58 | CN(C)C(=O)c1ccc(NC(=O)c2cccnc2)cc1 | inconclusive: 0.103 µM [falling, full curve, poor fit]
59 | CCSc1nnc(NC(=O)C2CCN(S(=O)(=O)c3ccccc3C(F)(F)F)CC2)s1 | active: 23.1 µM
60 | COc1cc(/C=N/NC(=O)c2ccccc2O)ccc1OCC(=O)Nc1ccccc1 | inconclusive: 6.51 µM [falling, single point]
61 | Cc1cc(C)c(C)c(S(=O)(=O)N[C@@H](C)C(=O)OCC(N)=O)c1C | inconclusive: 6.51 µM [falling, single point]
62 | CCOc1ccc2c(c1)sc(N)[n+]2Cc1cc(C)cc2cccnc12 | inconclusive: 0.92 µM [activator, partial curve, poor fit]
63 | COc1ccc(C(C(=O)NC(C)(C)C)N(CCc2ccccc2)C(=O)CCC(=O)Nc2cc(C)on2)cc1 (centres undefined) | inconclusive: 23.1 µM [falling, single point]
64 | Cc1ccc(C(CC(=O)Nc2cc(C)cc(C)c2)N2Cc3ccccc3C2=O)cc1 (centres undefined) | inconclusive: 18.4 µM [falling, single point]

Exported tab-delimited: two of the compounds above
Row	Structure (SMILES)	Potency
48	CC(C)(C)c1ccc(S(=O)(=O)Nc2noc3ccccc23)cc1	inconclusive: 29.1 µM [falling, single point]
49	Cc1cc(C(=O)NNC(=S)NC(=O)/C=C/c2ccccc2Cl)n[nH]1	inconclusive: 8.2 µM [falling, partial curve]
